Record: PubChem BioAssay AID743454 (Peter MacCallum Cancer Centre, 2014)
Screen: 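Genes whose loss kills vorinostat-resistant colon cancer cells under vorinostat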 (primary screen). Cells: human HCT116-VR colon cancer cells, selected for vorinostat resistance. Reagents: siRNA pool against human genes, 40 nM siRNA pool. Time to read-out: vorinostat for 24 h, read-out about 72 h after transfection. Challenge: vorinostat at 2.5 µM final. Detection: 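Two measures, CellTiter-Fluor viability and luminescent caspase 3/7 activity, each as fold change against same-plate mock wells, mean of duplicates, then screen-wide robust z-score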. Reading the numbers: viability robust z-score: higher = more viable cells than screen typical; caspase robust z-score: higher = more caspase 3/7 activity than screen typical. Active means: 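a knock-down is a hit when classed RV1 or RV2 for lowered viability, or CA1 or CA2 for caspase activation; those lethal without drug were dropped; hits were retested singly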.
The whole screen tested about 18,000 reagents; below is a part drawn at random. 450 of all reagents (2.5%) were called active. 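Single biological run; no consistent viability z cut-off exists, so the class columns, not z-scores, define the calls.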 Entries without a mark were called inactive. Reagent sequences are not shown.

OR8U3 | viability hit class: no change; caspase hit class: no change; viability robust z-score: -3.8; caspase robust z-score: 2.67
AKAP10 | viability hit class: RV2 (reduced viability) (active); caspase hit class: no change; viability robust z-score: -3.78; caspase robust z-score: 4.1
RPAP2 | viability hit class: RV2 (reduced viability) (active); caspase hit class: CA2 (caspase activation); viability robust z-score: -3.15; caspase robust z-score: 5.52
OR5T2 | viability hit class: no change; caspase hit class: no change; viability robust z-score: -0.51; caspase robust z-score: 2.17
GPATCH2 | viability hit class: no change; caspase hit class: no change; viability robust z-score: 0.22; caspase robust z-score: -0.36
TMEM128 | viability hit class: no change; caspase hit class: no change; viability robust z-score: -0.48; caspase robust z-score: -1.17
ZNF691 | viability hit class: no change; caspase hit class: no change; viability robust z-score: 1.33; caspase robust z-score: 1.52
SIX3 | viability hit class: no change; caspase hit class: no change; viability robust z-score: -0.51; caspase robust z-score: -0.7
TMEM52B | viability hit class: no change; caspase hit class: no change; viability robust z-score: -0.14; caspase robust z-score: 2.75
LGALS9 | viability hit class: no change; caspase hit class: no change; viability robust z-score: -0.29; caspase robust z-score: -0.52
CLEC12A | viability hit class: no change; caspase hit class: no change; viability robust z-score: 0.03; caspase robust z-score: -1.3
DRC4 | viability hit class: no change; caspase hit class: no change; viability robust z-score: 2.18; caspase robust z-score: 1.04

Part of the list above, reformatted:
{"target gene": "LGALS9", "viability hit class": "no change", "caspase hit class": "no change", "viability robust z-score": -0.29, "caspase robust z-score": -0.52}
{"target gene": "CLEC12A", "viability hit class": "no change", "caspase hit class": "no change", "viability robust z-score": 0.03, "caspase robust z-score": -1.3}
